Measured values: publication PMC10940595
No constants are given. Whether binding was seen depends on the method and setting. In cells and extracts the contact can be indirect. A yes stands for co-enrichment or nearness to the bait. Other partners may have been found. Where a sequence is shown, tags or fusion partners need not be part of it.

Amino acid sequences for entries named in this document (tags omitted).
UniProt O17695: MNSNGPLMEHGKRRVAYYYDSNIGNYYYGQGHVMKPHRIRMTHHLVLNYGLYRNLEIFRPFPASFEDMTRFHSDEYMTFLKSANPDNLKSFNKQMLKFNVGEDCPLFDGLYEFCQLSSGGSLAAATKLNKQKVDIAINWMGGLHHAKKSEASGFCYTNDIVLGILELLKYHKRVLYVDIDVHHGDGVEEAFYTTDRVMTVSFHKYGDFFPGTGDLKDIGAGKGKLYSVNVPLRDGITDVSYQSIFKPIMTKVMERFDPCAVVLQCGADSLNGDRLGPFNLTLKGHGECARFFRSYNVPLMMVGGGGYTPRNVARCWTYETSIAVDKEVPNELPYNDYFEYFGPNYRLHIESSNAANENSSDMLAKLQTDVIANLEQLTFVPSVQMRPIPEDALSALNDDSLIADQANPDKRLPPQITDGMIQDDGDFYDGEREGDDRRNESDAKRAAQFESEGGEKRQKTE
UniProt Q9U263: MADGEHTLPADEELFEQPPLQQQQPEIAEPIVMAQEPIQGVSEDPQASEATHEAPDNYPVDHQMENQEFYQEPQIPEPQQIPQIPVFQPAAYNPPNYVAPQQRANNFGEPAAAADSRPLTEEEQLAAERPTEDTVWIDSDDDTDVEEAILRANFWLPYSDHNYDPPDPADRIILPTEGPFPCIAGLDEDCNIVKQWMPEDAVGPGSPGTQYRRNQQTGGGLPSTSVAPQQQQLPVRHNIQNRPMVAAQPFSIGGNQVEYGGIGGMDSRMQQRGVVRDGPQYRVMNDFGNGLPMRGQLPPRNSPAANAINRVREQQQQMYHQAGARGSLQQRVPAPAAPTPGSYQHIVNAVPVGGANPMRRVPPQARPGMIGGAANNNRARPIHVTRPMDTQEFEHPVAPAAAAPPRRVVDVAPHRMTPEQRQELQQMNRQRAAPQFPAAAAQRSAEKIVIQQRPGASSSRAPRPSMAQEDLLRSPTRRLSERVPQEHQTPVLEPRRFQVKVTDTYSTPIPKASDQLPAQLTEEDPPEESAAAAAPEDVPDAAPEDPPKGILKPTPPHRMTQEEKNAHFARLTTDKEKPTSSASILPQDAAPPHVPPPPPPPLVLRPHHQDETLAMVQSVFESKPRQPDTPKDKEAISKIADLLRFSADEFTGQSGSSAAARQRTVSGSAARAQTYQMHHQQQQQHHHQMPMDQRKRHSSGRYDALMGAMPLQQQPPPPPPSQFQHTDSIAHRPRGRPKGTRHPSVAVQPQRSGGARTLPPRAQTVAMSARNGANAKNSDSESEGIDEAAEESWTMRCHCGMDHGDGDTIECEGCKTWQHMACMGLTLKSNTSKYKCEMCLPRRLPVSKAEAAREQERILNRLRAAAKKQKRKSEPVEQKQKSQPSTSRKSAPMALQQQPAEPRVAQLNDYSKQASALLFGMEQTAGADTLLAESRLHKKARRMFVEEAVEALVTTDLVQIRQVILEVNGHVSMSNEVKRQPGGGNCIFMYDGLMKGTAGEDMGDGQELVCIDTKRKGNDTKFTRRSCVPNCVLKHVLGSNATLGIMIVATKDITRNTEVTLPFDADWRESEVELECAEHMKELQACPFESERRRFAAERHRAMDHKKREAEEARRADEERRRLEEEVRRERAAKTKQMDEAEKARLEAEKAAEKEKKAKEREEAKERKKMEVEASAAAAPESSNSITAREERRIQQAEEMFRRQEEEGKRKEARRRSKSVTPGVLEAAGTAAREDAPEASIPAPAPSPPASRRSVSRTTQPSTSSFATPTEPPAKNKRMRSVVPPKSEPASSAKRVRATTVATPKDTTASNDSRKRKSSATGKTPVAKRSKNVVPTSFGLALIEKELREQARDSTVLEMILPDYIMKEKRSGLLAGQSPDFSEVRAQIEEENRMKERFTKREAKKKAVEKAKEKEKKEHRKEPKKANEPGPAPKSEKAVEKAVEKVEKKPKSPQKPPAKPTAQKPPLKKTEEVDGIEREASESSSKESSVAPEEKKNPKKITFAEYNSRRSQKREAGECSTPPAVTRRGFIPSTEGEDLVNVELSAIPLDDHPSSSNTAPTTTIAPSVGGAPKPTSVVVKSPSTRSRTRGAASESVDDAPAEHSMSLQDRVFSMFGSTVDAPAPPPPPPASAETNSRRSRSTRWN

Molecular target: T1, HCF-1::GFP (C. elegans) (UniProt G5EC23)
T1 sequence: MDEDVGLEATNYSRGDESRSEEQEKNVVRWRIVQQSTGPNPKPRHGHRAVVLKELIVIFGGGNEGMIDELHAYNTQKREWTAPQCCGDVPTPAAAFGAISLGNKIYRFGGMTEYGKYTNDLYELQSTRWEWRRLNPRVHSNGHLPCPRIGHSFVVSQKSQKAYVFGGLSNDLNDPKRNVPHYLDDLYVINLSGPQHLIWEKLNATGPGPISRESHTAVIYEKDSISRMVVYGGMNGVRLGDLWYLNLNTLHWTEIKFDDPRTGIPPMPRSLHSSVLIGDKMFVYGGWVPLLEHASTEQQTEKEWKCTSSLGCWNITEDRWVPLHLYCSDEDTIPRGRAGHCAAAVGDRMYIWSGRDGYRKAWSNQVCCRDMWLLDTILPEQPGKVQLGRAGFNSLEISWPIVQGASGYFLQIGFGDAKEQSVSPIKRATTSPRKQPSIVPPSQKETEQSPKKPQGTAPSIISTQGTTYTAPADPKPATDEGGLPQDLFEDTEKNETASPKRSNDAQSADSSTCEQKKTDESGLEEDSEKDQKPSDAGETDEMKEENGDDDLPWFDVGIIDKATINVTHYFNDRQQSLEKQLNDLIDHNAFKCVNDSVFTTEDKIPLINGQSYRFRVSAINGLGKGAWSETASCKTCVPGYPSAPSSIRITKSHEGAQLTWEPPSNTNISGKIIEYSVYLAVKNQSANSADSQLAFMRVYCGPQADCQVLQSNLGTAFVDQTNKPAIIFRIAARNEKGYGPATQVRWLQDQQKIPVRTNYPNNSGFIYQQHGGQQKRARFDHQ
Assay: affinity purification with mass spectrometry; two independent single-replicate experiments: HCF-1::GFP immunoprecipitated from worm lysate with anti-GFP antibody (3E6; strain IU171, liquid culture) or with GBP beads (strain IU382.1; 20 mM Tris-HCl pH 8.0, 150 mM NaCl, 0.1% NP-40, 2 mM EDTA; 5 h at 4 °C); untagged N2 worms as negative control

| Substance | binding |
| --- | --- |
| HDA-1 (from UniProt O17695 1-461) (enzyme) | binds weakly |
| SET-26 (from UniProt Q9U263 1-1645) | binds |
